Results reported in US6630123B1, “Method to enhance tissue accumulation of radiolabeled compounds” (Board of Supervisors of Louisiana State University and …, priority 1997, dated 2003).
At least one peptide structure holds a part that was inferred or is arguable (an end, a ring closure or a residue).

Protein sequences, listed by entry. Tags and fused reporters are not part of them. Lines headed by an entry give the natural chain unless they say otherwise; changes in a name come on top.
UniProt P30874: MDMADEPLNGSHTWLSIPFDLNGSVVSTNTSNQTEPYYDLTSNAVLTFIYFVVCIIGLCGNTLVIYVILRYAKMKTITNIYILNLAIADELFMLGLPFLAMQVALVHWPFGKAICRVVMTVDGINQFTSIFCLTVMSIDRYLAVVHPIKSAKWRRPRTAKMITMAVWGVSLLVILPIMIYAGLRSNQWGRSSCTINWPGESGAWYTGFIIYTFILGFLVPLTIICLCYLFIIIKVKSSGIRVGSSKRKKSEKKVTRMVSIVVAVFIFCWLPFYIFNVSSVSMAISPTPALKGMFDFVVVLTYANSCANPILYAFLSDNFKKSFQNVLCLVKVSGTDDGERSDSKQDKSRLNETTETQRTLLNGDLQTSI

Experiments:
[1] = test system: human placental vein discs (angiogenic vascular tissue); assay: Human Placental Vein Angiogenesis Model; assay type: cell-based; settings: 50 μCi/mL (or equivalent amounts), 14-day incubation, FIG. 20
Source text: Watson et al., “Up-Regulation of Somatostatin Receptor Subtype 2. (SST-2) mRNA Occurs During the Transformation of Human Endothelium to the Angiogenic Phenotype,” Paper Presented at the 12th International Symposium on Regulatory Peptides, Copenhagen, Denmark, September 1996; J. C. Watson et al., “SST-2 Gene Expression Appears During Human Angiogenesis,” Regulatory Peptides, vol. 64, p. 206 (Abstract) (1996); and J. C. Watson et al., “Breast Cancer Increases Initiation of Angiogenesis Without Accelerating Neovessel Growth Rate,” Surgery, vol. 122, pp. 508-14 (1997). Human placental veins were cut into discs of 2 mm diameter and were incorporated into a 0.3% fibrinogen gel. This gel was then overlaid with tissue culture media containing 10-20% fetal calf serum (FCS). Under normal conditions, endothelial cords will begin to sprout from the transected cut edge of the vein discs within six days.
These vein discs were placed into wells of three separate culture plates. One culture plate, the control sample, was allowed to grow without treatment. […] The discs were then incubated for fourteen days. […]
Using a digital image analyzer, the mean area of the sprouting tissue surrounding the discs was measured.
To measure the growth rate of angiogenic vascular tissue, every two days during the 14-day incubation period, the length of sprouts were measured. […]

[2] = test system: DNA of SKNSH cells (SST-2 negative); assay: Binding to nuclear DNA extracted from SKNSH cells; assay type: cell-based, human; settings: for CPM Specifically Bound (Difference): SKNSH
[3] = target: T1, somatostatin receptors type 2 (SST-2), IMR-32 cells (Homo sapiens, UniProt P30874); assay: Peptide binding and internalization assay, IMR-32 cells; settings: IMR-32, competitor octreotide acetate
T1 construct: a human neuroblastoma cell line with a very high expression level of somatostatin receptors (SST), predominantly SST-2; host or cells: IMR-32 whole cells

[4] = test system: SKNSH cells (lack somatostatin receptors); assay: Peptide binding and internalization assay, SKNSH cells (negative control); design: species or system human; settings: competitor octreotide acetate
[5] = test system: neuroendocrine cancers expressing the somatostatin receptor; assay: Pilot clinical trial of monthly 180 mCi doses; assay type: in vivo, human
Procedure: For six months, pilot clinical trials were conducted in ten human patients with progressive metastatic indolent and symptomatic neuroendocrine cancers expressing the somatostatin receptor. […] The first monthly dose was a bolus injection of 180 mCi. The second monthly dose was infusion of 180 mCi over 72 hr. The third monthly dose was infusion of 180 mCi over 24 hr. Thereafter, all monthly doses were infusion of 180 mCi over 24 hr. Clinical benefits (as evidenced by reduced pain, weight gain, reduced malaise, etc.) occurred in 6 of the 10 neuroendocrine (carcinoid/islet cell) patients. Partial radiographic responses (greater than 50% reduction in the product of perpendicular tumor diameters) occurred in 2 patients, and significant tumor necrosis developed in 7 of the 10 neuroendocrine patients. Treatment-related toxicity included 2 Grade III platelet, 1 Grade II WBC, 1 Grade I WBC and 2 Grade I Hb on the NCI (National Cancer Institute) grading scale.

[6] = test system: DNA of IMR-32 cells (SST-2 positive); assay: Binding to nuclear DNA extracted from IMR-32 cells; assay type: cell-based, human; settings: for Radioligand + Unlabeled Ligand, Decay Corrected (CPM ± SD): with octreotide acetate

C[C@@H](O)[C@@H]1NC(=O)[C@H](CCCCN)NC(=O)[C@@H](Cc2c[nH]c3ccccc23)NC(=O)[C@H](Cc2ccccc2)NC(=O)[C@@H](NC(=O)[C@@H](Cc2ccccc2)NC(=O)CN2CCN3CCN(CC(=O)O)CC(=O)[O][111In]([O]C(=O)C3)[O]C(=O)C2)CSSC[C@@H](C(=O)N[C@H](CO)[C@@H](C)O)NC1=O [^111In-pentetreotide, ^111In-DTPA-D-Phe^1-octreotide]
growth rate (mm/day) of angiogenic vascular tissue [1]: substantially below that of the control
association with cellular DNA ([2]; SKNSH cells, Tables 6 and 7): virtually none bound
CPM Specifically Bound (Difference) ([2]; 60 minutes): −6 CPM
CPM Specifically Bound (Difference) ([2]; […]): +7 CPM
Specific Binding, INTRACELLULAR [3]: 1,536 CPM
Specific Binding, INTRACELLULAR [4]: 0 CPM
Specific Binding, MEMBRANE [4]: 0 CPM
Specific Binding, TOTAL [4]: no specific binding was detected
Specific Binding, TOTAL ([4]; listed as 111In-Pentetreotide): 0 CPM
overall efficacy and tolerability ([5]; 180 mCi monthly doses): effective and well-tolerated antineoplastic agent in some subjects
Partial radiographic responses (greater than 50% reduction in product of perpendicular tumor diameters) ([5]; monthly 180 mCi doses, ten patients): 2 patients
Radioligand, Decay Corrected (CPM ± SD) ([6]; 100 μg DNA, 30 mins): 128 ± 28 CPM
SPM Specifically Bound (Difference), Decay Corrected ([6]; 30 mins): 45
SPM Specifically Bound (Difference), Decay Corrected ([6]; 60 mins): 69
Radioligand, Decay Corrected (CPM ± SD) ([6]; 180 mins): 291 ± 44 CPM
SPM Specifically Bound (Difference), Decay Corrected ([6]; 180 mins): 126
% Specifically Bound ([6]; 2880 mins): 67%
Binding to cellular DNA, Protease Treated ([6]; IMR-32 cells, 100 μg DNA, proteinase-K 1 hour 37° C., single replicate experiments 1-3): 9,564 CPM
association with cellular DNA ([6]; IMR-32 cells, Tables 6 and 7): substantial amount
Radioligand + Unlabeled Ligand, Decay Corrected (CPM ± SD) ([6]; 30 mins): 83 ± 12 CPM
Radioligand + Unlabeled Ligand, Decay Corrected (CPM ± SD) ([6]; 60 mins): 83 ± 1 CPM
Radioligand + Unlabeled Ligand, Decay Corrected (CPM ± SD) ([6]; 180 mins): 165 ± 15 CPM
